Results are given in words; binding and its absence hold for the method and conditions named.

The target of the assay is T1, LARP7 La module (1-208), comprising the LAM and RRM1 regions with an N-terminal extension (human) (UniProt Q4G0J3).
T1 sequence: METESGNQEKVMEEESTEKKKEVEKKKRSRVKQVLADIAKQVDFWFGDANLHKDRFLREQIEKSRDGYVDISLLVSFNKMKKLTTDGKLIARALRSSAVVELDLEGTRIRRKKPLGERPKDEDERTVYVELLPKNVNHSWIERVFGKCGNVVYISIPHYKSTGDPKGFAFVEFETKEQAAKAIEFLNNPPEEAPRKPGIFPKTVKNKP
As to the kind of experiment: native gel or EMSA; 32P-5'-labelled HP4 RNA mutated at G312C (50 nM) incubated 20 min at 4°C with both the La module and the C-terminal domain, buffer with 250 mM NaCl; La module held on the 3'-end of the RNA, supershift by the C-terminal domain looked for; both purified. (In general: Mobility shift assays separate free from complexed probe on a gel.)

B1: LARP7 C-terminal domain comprising the RRM2 (433-582) (domain or fragment, UniProt Q4G0J3 433-582)
chain: ANREECRTQEKVNATGPQFVSGVIVKIISTEPLPGRKQVRDTLAAISEVLYVDLLEGDTECHARFKTPEDAQAVINAYTEINKKHCWKLEILSGDHEQRYWQKILVDRQAKLNQPREKKRGTEKLITKAEKIRLAKTQQASKHIRFSEYD
As to B1, the binding result is listed as “no binding”.
